Part of at least one peptide drawing is inferred or uncertain, most often the ends. No end group written: not given here.
How the values were obtained:
NIH3T3 cells [1] = assay: Transfection test in the presence of a neutral lipid (DOGS/DOPE), luciferase activity; format: cell-based; conditions: DOGS/DOPE 1/2, 0.5 μg DNA, 0.25 μg compound, pH 7.4
NIH3T3 cells [2] = assay: Variation of compound/DNA ratio in the presence of DOGS, luciferase activity; format: cell-based; conditions: DOGS charge ratio 1.8x, 0.75 μg DNA
Description: (§1) 1. A mixture of 10 μl composed of the following is prepared:
0.75 μg of pCMV-luc plasma DNA and a compound according to the invention in the ratio indicated, in 5% D-glucose, 150 mM NaCl buffer solution, with 10 mM HEPES (pH of the compaction solution: 7.2),
40 mM dioctadecylamidoglycylspermine (DOGS) in a charge ratio of 1.8×.
(§2) 2. 4·10^5 cells from NIH3T3 lines are incubated with the above mixture at 37° C., under an atmosphere of 5% CO2 for 4 hours. The cells are then washed and recultured for 48 hours in a medium containing 10% serum (DMEM 10% SVF). The cell carpet is then lysed, 45 hours after the transfection, in 100 μl of lysis buffer (Promega), recovered and then centrifuged at 20,000 g for 5 minutes. The luciferase activity is measured on 5 μl of the supernatant, adding 25 μl of substrate (Promega). The reading is taken on an LKB luminometer, cumulating the RLUs (relative light units) over 20 seconds.

NIH3T3 cells [3] = assay: Variation of compound/DNA ratio in the presence of 1.8x DOGS/DOPE, luciferase activity; format: cell-based; conditions: 1.8x DOGS/DOPE (1/2)
NIH3T3 cells [4] = assay: Variation of compound/DNA ratio in the presence of lipopolyamine A, luciferase activity; format: cell-based
Description: as §1
0.55 μg of pCNV-luc plasma DNA and a compound according to the invention, in the ratio indicated, in 150 mM NaCl buffer solution,
1,3-bis (3-aminopropylamino) -2-propyl (dioctadecyl-carbamoylmethoxy)acetate in the charge ratios indicated.
as §2, with “2. 5·10^4” for “2. 4·10^5”, “on 10” for “on 5”, “adding 50” for “adding 25”, “on a Berthold lumat 9501®” for “on an LKB”, “over 10” for “over 20”

NIH3T3 cells [5] = assay: Variation of compound/DNA ratio in the presence of PEI 800K, luciferase activity; format: cell-based
cranial tibial muscle = assay: In vivo transfer into muscle cells, luciferase activity; set-up: species or system mice; conditions: mouse cranial tibial muscle; 20 μg DNA; peptide/DNA 0.025 weight/weight + lipopolyamine C 0.01 nmol/μl of DNA; 2 days after injection
[6] = system: tumours induced by 3T3 HER2 cells; assay: In vivo injection of compacting peptides without lipofectant into tumours, luciferase activity; set-up: species or system mice; conditions: 10 μg DNA per tumour, no lipofectant
NIH 3T3 cells = assay: in vitro transfer of nucleic acid into NIH 3T3 cells with DOGS (luciferase activity); format: cell-based; conditions: Table 2, 5% D-glucose, 150 mM NaCl, 10 mM HEPES pH 7.2, 0.5 μg DNA, 0.25 μg compound
Description: as §1
0.5 μg of pCMV-luc plasma DNA, 0.25 μg of a compound according to the invention, in a buffer solution as identified,
40 mM dioctadecylamidoglycylspermine (DOGS) in charge ratios X as indicated in each of the tests. 2. 5·10^4 cells from the NIH3T3 lines are incubated with the above mixture at 37° C., under an atmosphere of 5% CO2 for 4 hours. The cells are then washed and recultured for 48 hours in a medium containing 10% serum (DMEM 10% SVF).
The cell carpet is then lysed in 50 μl of lysis buffer (Promega), recovered and then centrifuged at 20,000 g for 5 minutes.
The luciferase activity is measured on 4 μl of supernatant by adding 20 μl of substrate (Promega). The reading is taken on a LKB luminometer, cumulating the RLUs (relative light units) over 20 seconds.
3. Compaction in 150 mM NaCl, 10 mM HEPES* (* N-(2-hydroxyethyl)piperazine-N'-(2-ethanesulphonic acid) at pH 7.1
4. Compaction in 5% D-glucose, 150 mM NaCl, with 10 mM HEPES (pH of the compaction solution: 7.2)

[7] = system: tumours of type 3LL (Lewis Lung carcinoma); assay: In vivo transfer into tumour cells (3LL tumours), luciferase activity; set-up: species or system mice; conditions: 18.75 μg DNA/tumour, 0.25 μg/μl; pept/DNA w/w 0.5; cationic lipid C 2 nmol/μg DNA; vehicle 75 mM NaCl
Description: The corresponding tests are carried out on adult (>8 weeks) female C57/BL mice carrying tumours of type 3LL (Lewis Lung carcinoma) obtained by passing fragments of tumour from animal to animal, implanted under the skin of the flank.
As regards the solutions injected, they are prepared as follows: the DNA is first dissolved in the buffer, the peptide is then optionally added and, after 20 minutes, a solution of cationic lipids at high concentration (20 or 40 mM) is added to the mixture. After addition of all these products, the mixture contains, besides the DNA, the peptide and the cationic lipid, 150 mM NaCl, 5% D-glucose and 5 mM MES pH 6.2. In the case of the last two series with lipopolyamine C (RPR 120 535), the injection vehicle is 75 mM NaCl and 150 mM NaCl, 5% D-glucose respectively. The injection is made 20 to 30 minutes after the solution has been prepared.
Each transfecting composition (see Tables 9 and 10 for their respective specificities) is injected into the tumour 7 days after implantation, the mouse being anaesthetized with a ketamine 130 mg/kg+xylazine (4 mg/kg) mixture.
Two days after the injection, the tumour tissue is removed, weighed and then chopped up and ground in 500 μl of lysis buffer (Promega cell lysis buffer E153 A). After centrifugation (20,000 g for 10 minutes), 10 μl are taken and used to evaluate the luciferase activity by measuring the total light emission obtained after mixing with 50 μl of reagent (Promega luciferase assay substrate) in a Lumat LB 9501 luminometer (Berthold), with integration over 10 seconds.
The resulting activity is expressed as RLUs (relative light units) estimated in the entire tumour lysis supernatant, or as RLU per μg of DNA injected.

3LL cells = assay: In vitro transfer of nucleic acid into 3LL cells, luciferase activity; format: cell-based; conditions: 0.5 μg DNA, 0.5 μg peptide, 75 mM NaCl
Description: A mixture of 10 μl composed of the following is prepared: 0.5 μg of pCMV-luc plasmid DNA, 0.5 μg of PR1 or PR2 a compound according to the invention, in a solution of 75 mM NaCl final lipopolyamine C (RPR 120535) in charge ratios as indicated in each of the tests listed in Table 11 below. 1×10^5 3LL cells (in 250 μl of DMEM culture medium with 10% foetal calf serum) are incubated with the above mixture at 37° C. under a 5% CO2 atmosphere for 4 hours. 500 μl of culture medium are added and the cells are recultured. The following day, the cells are washed and recultured for 24 hours in the same medium containing 10% foetal calf serum. The cell carpet is then lysed in 100 μl of lysis buffer (Promega). The luciferase activity is measured by adding 50 μl of substrate (Promega). The reading is taken on an LB luminometer by cumulating the RLUs (relative light nits) over 10 seconds.

With `CC(C)[C@H](NC(=O)[C@H](CCCCN)NC(=O)[C@H](CCCNC(=N)N)NC(=O)[C@H](CCCCN)NC(=O)[C@H](CCCCN)NC(=O)[C@H](CCCCN)NC(=O)[C@@H]1CCCN1)C(=O)NCCC(=O)N[C@@H](CCCCN)C(=O)N[C@H](C(=O)N1CCC[C@H]1C(=O)N[C@@H](CCCCN)C(=O)N[C@@H](CCCCN)C(=O)N[C@@H](C)C(=O)N[C@@H](CCCCN)C(=O)N[C@@H](CCCCN)C(=O)N1CCC[C@H]1C(=O)N[C@@H](CCCCN)C(=O)N[C@H](C(=O)N1CCC[C@H]1C(=O)N[C@@H](CCCCN)C(=O)N[C@@H](CCCCN)C(=O)N[C@@H](C)C(=O)N[C@@H](CCCCN)C(=O)N[C@@H](CCCCN)C(=O)N1CCC[C@H]1C(=O)O)[C@@H](C)O)[C@@H](C)O` [nls-H, ProLysLysLysArgLysVal-βAlaLysThrProLysLysAlaLysLysProLysThrProLysLysAlaLysLysPro (COOH) (SEQ ID No.9)] the luciferase activity (NIH3T3 cells [1]; DOGS/DNA charge ratio 0.8x) was 760 RLU, the luciferase activity (NIH3T3 cells [1]; DOGS/DNA charge ratio 1x) was 2380 RLU and the luciferase activity (NIH3T3 cells [1]; DOGS/DNA charge ratio 1.8x) was 52800 RLU. For the same compound, the luciferase activity (NIH3T3 cells [2]; PEP/DNA w/v 0.25) was 38,000 RLU, the luciferase activity (NIH3T3 cells [2]; PEP/DNA w/v 0.5) was 100,000 RLU and the luciferase activity (NIH3T3 cells [2]; PEP/DNA w/v 1) was 105,000 RLU. The luciferase activity (NIH3T3 cells [2]; PEP/DNA w/v 2) was 200,000 RLU, the luciferase activity (NIH3T3 cells [3]; COMPOUND/DNA w/v 0.25) was 5600 RLU and the luciferase activity (NIH3T3 cells [3]; COMPOUND/DNA w/v 0.5) was 18,500 RLU. For the same compound, the luciferase activity (NIH3T3 cells [3]; COMPOUND/DNA w/v 1) was 36,000 RLU, the luciferase activity (NIH3T3 cells [3]; COMPOUND/DNA w/v 2) was 58,000 RLU and the luciferase activity (NIH3T3 cells [4]; lipopolyamine A 1.8x, Compound/DNA ratio 0.5) was 52.4 10^6 RLU. For the same compound, the luciferase activity (NIH3T3 cells [4]; lipopolyamine A 1.8x, Compound/DNA ratio 1) was 58.5 10^6 RLU, the luciferase activity (NIH3T3 cells [4]; lipopolyamine A 1.8x, Compound/DNA ratio 2) was 39.3 10^6 RLU and the luciferase activity (NIH3T3 cells [4]; lipopolyamine A 3x, Compound/DNA ratio 0.5) was 64.1 10^6 RLU. The luciferase activity (NIH3T3 cells [4]; lipopolyamine A 3x, Compound/DNA ratio 1) was 60.4 10^6 RLU, the luciferase activity (NIH3T3 cells [4]; lipopolyamine A 3x, Compound/DNA ratio 2) was 49.2 10^6 RLU and the luciferase activity (NIH3T3 cells [5]; PEI 800K 6 eq, Compound/DNA ratio 0.5) was 4 10^6 RLU. The luciferase activity (NIH3T3 cells [5]; PEI 800K 6 eq, Compound/DNA ratio 1) was 7.3 10^6 RLU, the luciferase activity (NIH3T3 cells [5]; PEI 800K 6 eq, Compound/DNA ratio 2) was 8.8 10^6 RLU and the luciferase activity (NIH3T3 cells [5]; PEI 800K 9 eq, Compound/DNA ratio 0.5) was 16.3 10^6 RLU. For the same compound, the luciferase activity (NIH3T3 cells [5]; PEI 800K 9 eq, Compound/DNA ratio 1) was 11 10^6 RLU, the luciferase activity (NIH3T3 cells [5]; PEI 800K 9 eq, Compound/DNA ratio 2) was 12.1 10^6 RLU and the “Average RLU” value (cranial tibial muscle) was 42 722 500 RLU. The “Result, RLU/tumour average” value ([6]; buffer 150/5/HEPES, peptide/DNA w/w 0.02, mice put to sleep during injection) was 4 031 000 RLU/tumour, the “Result, RLU/tumour average” value ([6]; buffer 150/5/HEPES, peptide/DNA w/w 0.1, mice put to sleep during injection) was 1 654 313 RLU/tumour and the “Result, RLU/tumour average” value ([6]; buffer 150/HEPES, peptide/DNA w/w 0.02) was 6 819 100 RLU/tumour.

For “ATPAKKAAATPAKKAA [N, AlaThrProAlaLysLysAlaAlaAlaThrProAlaLysLysAlaAla (COOH) (SEQ ID No.:3)]”, the luciferase activity (NIH 3T3 cells; DOGS/DNA charge ratio 0.8x) was 1450 R.L.U, the luciferase activity (NIH 3T3 cells; DOGS/DNA charge ratio 3x) was 90300 R.L.U and the luciferase activity (NIH3T3 cells [2]; PEP/DNA w/v 0.25) was 35,000 RLU. The luciferase activity (NIH3T3 cells [2]; PEP/DNA w/v 0.5) was 35,000 RLU, the luciferase activity (NIH3T3 cells [2]; PEP/DNA w/v 1) was 13,000 RLU and the luciferase activity (NIH3T3 cells [2]; PEP/DNA w/v 2) was 20,000 RLU. For the same compound, the luciferase activity (NIH3T3 cells [3]; COMPOUND/DNA w/v 0.25) was 7600 RLU, the luciferase activity (NIH3T3 cells [3]; COMPOUND/DNA w/v 0.5) was 1800 RLU and the luciferase activity (NIH3T3 cells [3]; COMPOUND/DNA w/v 1) was 13,600 RLU. For the same compound, the luciferase activity (NIH3T3 cells [3]; COMPOUND/DNA w/v 2) was 14,100 RLU.

“SRSRYYRQRQRSRRRRRR [PR2, SerArgSerArgTyrTyrArgGlnArgGlnArgSerArgArgArgArgArgArg (SEQ ID No.:7)]” was tested, and the “Result, RLU/tumour average” value [7] was 1 046 050 RLU/tumour, the luciferase activity (3LL cells; Table 11, Lipopolyamine C/DNA charge ratio 4x) was 447 214 RLU and the luciferase activity (3LL cells; Table 11, Lipopolyamine C/DNA charge ratio 6x) was 1 182 641 RLU. The luciferase activity (3LL cells; Table 11, Lipopolyamine C/DNA charge ratio 8x) was 729 285 RLU, the luciferase activity (3LL cells; Table 12, Lipopolyamine C/DNA charge ratio 4x) was 6 304 RLU and the luciferase activity (3LL cells; Table 12, Lipopolyamine C/DNA charge ratio 6x) was 113 113 RLU. For the same compound, the luciferase activity (3LL cells; Table 12, Lipopolyamine C/DNA charge ratio 8x) was 294 743 RLU.
